# Results of single-concentration screens

The values are deposited in ChEMBL (CHEMBL3988442, “University of Dundee, Small-Polar-MMV Screening Library” (2021)).

The filed quantity is “Percent Effect” (%). The controls that fix the scale are not given in the record; negative values are as filed. The compounds are a random part of those screened. Two or more numbers in one place are separate tests of the same structure; such repeats can differ widely.

Mtb cholesterol medium: 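Whole-cell growth test on Mycobacterium tuberculosis, read after 4 days in a medium based on cholesterol and the lipid DPPC; the read-out is not stated. Compounds at 50 µM. Higher reads as more growth inhibition (inferred: compounds with an IC50 in retests scored well above the rest). About 69,000 compounds were tested under these conditions; 0.54% (about 370) showed 50% or more at least once.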
Mtb glucose medium: 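Whole-cell growth test on Mycobacterium tuberculosis, read after 3 days in glucose-containing 7H9 medium; the read-out is not stated. Tested at 50 µM. Higher reads as more growth inhibition (inferred: compounds with an IC50 in retests scored well above the rest). Of about 69,000 compounds tested this way, about 760 (1.1%) reached 50% or more in at least one test.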

structure	Mtb cholesterol medium	Mtb glucose medium
COc1ccc(OCc2nc(C(=O)N3C[C@H](O)[C@@H](N(C)C)C3)co2)cc1	-3.772% and -4.564%	-14.52%
Cc1ccc(C(=O)N2CCSCC2)cc1N1CCNC1=O	1.209% and -12.22%	-16.27%
CCOC(C(=O)N1CCn2c(C)nnc2C1)c1ccccc1 (centres unmarked)	1.01%	0.2853% and -9.021%
CCn1ccc(CNC(=O)c2cc(OC)cc(OC)c2)n1	7.404%	34.95%
O=C(O)C(F)(F)F.O=C(O)C(F)(F)F.O=C(O)C(F)(F)F.c1cncc(CN2CCCn3nnc(CN4CCCC4)c3C2)c1	-4.936%	-4.441%
CCNC(=O)CCC(=O)Nc1ccc2nn(C(C)C)cc2c1	-6.764%	-5.897%
N#Cc1cccc(S(=O)(=O)NC(=O)COc2ccc3c(c2)CCC3)c1	8.357%	6.902%
COCC1(C(=O)N[C@H]2CN(c3nnc(C)s3)C[C@@H]2C2CC2)CCC1	-11.31%	-25.1%
CCOc1ccc(Cl)cc1C1CCCN1.Cl (centres unmarked)	18.49%	27.41% and 31.44%
Cc1ccc(CNCc2ccc(-n3nc(C)cc3C)nc2)cc1	-19.99%	7.325%
CC1CCC(NS(=O)(=O)CC(=O)NC(C2CC2)C2CC2)CC1 (centres unmarked)	-15.23%	-11.05%
COCCn1nc(C(=O)N(C)Cc2cnn(C)c2)ccc1=O	-1.118%	-13.84% and -11.15%
Cc1nc(-c2ccccc2C)n(CC(=O)NC(C)C2CC2)n1 (centres unmarked)	-8.215%	-6.08% and -0.3184%
Cc1ccc(CNCc2c(C(C)C)nn(C)c2N2CCOCC2)s1	22.8%	15.76%
CC(C)CNc1c(NCc2ccco2)c(=O)c1=O	16.44%	7.448%
COc1ccc(Br)cc1SCCS(C)(=O)=O	0.9635% and -4.543%	-1.092%
CN(Cc1ccccn1)CC1CCCN1c1cccnn1 (centres unmarked)	-8.476%	-0.5552%
Cc1nc(CN2CCCC(C)(CO)C2)no1 (centres unmarked)	1.266%	-8.498%
CCCS(=O)(=O)NCc1ncc(C)c(OC)c1C	-1.465%	14.11%
CN1N=C(C(=O)N2CCCC(CCc3cccc(F)c3)C2)CCC1=O (centres unmarked)	-8.613%	3.259%
O=C(NCCNc1ncccn1)N1CCN(C2CCCC2)CC1	-33.52%	7.485%
CCc1cc(CNC(=O)NCC(c2ccco2)N2CCCC2)[nH]n1 (centres unmarked)	0.9979%	-2.714% and -0.1378%
O=C(Cc1cnn(-c2ccccc2)n1)NC(C1CC1)C1CC1	3.757%	4.188%
CN(C)Cc1noc2c1CN(Cc1ccsc1)CC2.O=C(O)C(F)(F)F.O=C(O)C(F)(F)F	-4.446%	0.8761% and -19.73%
C=C(C)COc1ccccc1C(=O)NCCc1cc(O)nc(C)n1	-15.37%	-18.93%
Cc1nccn1C1CCCN(C(=O)c2ccc(-n3cccn3)nc2)C1 (centres unmarked)	-8.457%	-0.2824%
O=C(NC1CC1)C1CN(c2nc3ccccc3s2)CCN1 (centres unmarked)	2.686%	-1.838%
O=C(O)C(F)(F)F.[H][C@@]12CCN(CC(=O)NC)C[C@]1([H])CN(C(=O)c1cc[nH]n1)C2	2.232%	18.46%
O=C(O)C(F)(F)F.O=C(O)C(F)(F)F.O=C1N(Cc2cccnc2)CCC12CCCN(c1ncccn1)C2 (centres unmarked)	77.24%	-38.77%
[H][C@@]12CCN(C(=O)Nc3cccc4cc(C)oc34)C[C@@]([H])(CC1)N2C	-14.31%	-21.6% and -4.817%
CCC(CC)(CNC(=O)NC1CCCC1(C)C)S(C)(=O)=O (centres unmarked)	15.98%	4.851% and -0.06884%
O=C1CCCc2[nH]c(=O)c(C(=O)N(Cc3ccsc3)C3CC3)cc21	-7.524%	-8.117%
COCc1nc(C2CC2)nn1-c1ccccc1Cl	-1.33%	-29.77% and 9.179%
Cc1cc(N(C)C)nc(NCCn2cccn2)n1	16.61%	10.98%
COCCN1CCCC2(CCN(Cc3noc(C4CCCC4)n3)C2)C1=O (centres unmarked)	7.993% and 1.23%	20.17%
CNS(=O)(=O)c1cccc(C(C)NCc2nccn2C(C)C)c1 (centres unmarked)	-24.81% and 1.202%	-22.45%
COCc1cc(CN(C)C(=O)c2c[nH]nc2-c2cccc(F)c2)n[nH]1	-35.04%	-16.63%
c1cncc(-c2noc(CNCC3CCCN3c3cccnn3)n2)c1 (centres unmarked)	-19.4%	-20.15%
O=C(O)C(F)(F)F.[H][C@@]12CO[C@@H](CNC(=O)c3cnn(C)c3)[C@]1([H])CCN(Cc1ccco1)C2	-2.349%	11.78%
CC(=O)N1CCCC(c2ccnc(Nc3cnccn3)n2)C1 (centres unmarked)	3.37%	18.74%
Cc1noc(C2CCCN(C(=O)CCNc3ncccn3)C2)n1 (centres unmarked)	-1.43%	18.13%
CCOC(=O)N1CCC(NC(=O)c2cccc(C3CCCNC3)c2)CC1 (centres unmarked)	-6.315%	5.248%
Cc1nc(CC(=O)N2CCCC2c2nc(-c3ccccc3)no2)cs1 (centres unmarked)	3.834% and 4.409%	16.45%
Cc1ncsc1-c1nc(Cc2cccs2)nn1C1CCN(C)CC1	1.276%	3.312% and -11.91%
CN1CCN(c2ccc(F)cc2C(N)=O)CC1	-6.196%	-4.638%
Cc1cccc2nc(CN3CCCC(Cn4ccnn4)C3)cc(=O)n12 (centres unmarked)	-15.36%	-54.88% and 2.446%
CN1CCOC(C(=O)Nc2nc(-c3ccc4c(c3)CCC4)n[nH]2)C1 (centres unmarked)	22.83%	11.17% and -0.6067%
CN1C2(CCN(Cc3ccc(F)cc3)C2)c2ccccc2S1(=O)=O (centres unmarked)	-6.911%	2.873% and -24.42%
O=C(NCc1nnc2n1CCCCC2)N1CCc2sccc2C1	-5.07%	10.3%
CCC(C)S(=O)(=O)N(Cc1ccco1)Cc1ccccc1O (centres unmarked)	6.397%	16.98%
NC(=O)C1CCN(C(=O)CCCc2ccc(Cl)c(Cl)c2)CC1	-11.44%	10.27%
COc1ccnc(NC2CCN(CC(=O)N3CCCC3)CC2)n1	3.598% and -3.937%	-14.13%
CCOC(=O)C1CCN(c2nccc(-n3nc(C)cc3C)n2)CC1	7.058%	9.602%
CCN1CCCC1CNC(=O)Cc1c(C)n[nH]c1-c1ccc(F)cc1 (centres unmarked)	-2.255%	-18.06% and 9.344%
O=C(O)C(F)(F)F.[H][C@@]12CCN(C(=O)c3cnn(C)c3)[C@@]1([H])CCN2Cc1ccccc1	-15% and -8.959%	-1.413%
COCCN1CCC(c2nc3c([nH]2)CC(C)(C)CNC3=O)CC1	-15.13%	29.94%
CCCS(=O)(=O)N1CCN(Cc2ccco2)CC1.O=C(O)C(=O)O	3.602%	-5.87%
CC(NC(=O)c1cccs1)C(=O)Nc1cccnc1N1CCCCC1 (centres unmarked)	-9.117%	-17.03%
O=C(c1ccon1)N1CCCC(n2cncn2)C1 (centres unmarked)	16.44%	-9.496%
Cc1cc(C)c(C#N)c(N2CCC(Cc3ccccc3)CC2)n1	15.32%	67.56%
O=C(O)C(F)(F)F.[H][C@]12CCN(C(=O)Cc3cccc(OC)c3)CC[C@@]1([H])S(=O)(=O)CCN2C	-1.655%	-6.975%
Cc1cc(C(=O)NC2CCc3nc(C)cn3C2)[nH]n1 (centres unmarked)	-10.91%	-22.82%
O=C(c1nc2c(s1)CCCN2C(=O)C1CC1)N1CCCC1	15.25%	1.371% and 18.17%
Cn1cc(C(=O)N2CCCC(Cc3nccs3)C2)cn1 (centres unmarked)	-11.12%	-0.8575%
CCCOc1ccc(C(=O)N2CCN3CCNC(=O)C3C2)cc1Cl (centres unmarked)	-5.3%	17.14%

Some entries from above, unchanged:

structure	Mtb cholesterol medium	Mtb glucose medium
Cc1cc(C(=O)NC2CCc3nc(C)cn3C2)[nH]n1 (centres unmarked)	-10.91%	-22.82%
O=C1CCCc2[nH]c(=O)c(C(=O)N(Cc3ccsc3)C3CC3)cc21	-7.524%	-8.117%
O=C(O)C(F)(F)F.[H][C@]12CCN(C(=O)Cc3cccc(OC)c3)CC[C@@]1([H])S(=O)(=O)CCN2C	-1.655%	-6.975%
CN(C)Cc1noc2c1CN(Cc1ccsc1)CC2.O=C(O)C(F)(F)F.O=C(O)C(F)(F)F	-4.446%	0.8761% and -19.73%